Test results as given in the supplement of paper PMC6411743.
± gives the standard deviation of the averaged measurements. Some of the results follow.

Protein sequences, listed by entry. Tags and fused reporters are not part of them. Lines headed by an entry give the natural chain unless they say otherwise; changes in a name come on top.
UniProt Q96GG9: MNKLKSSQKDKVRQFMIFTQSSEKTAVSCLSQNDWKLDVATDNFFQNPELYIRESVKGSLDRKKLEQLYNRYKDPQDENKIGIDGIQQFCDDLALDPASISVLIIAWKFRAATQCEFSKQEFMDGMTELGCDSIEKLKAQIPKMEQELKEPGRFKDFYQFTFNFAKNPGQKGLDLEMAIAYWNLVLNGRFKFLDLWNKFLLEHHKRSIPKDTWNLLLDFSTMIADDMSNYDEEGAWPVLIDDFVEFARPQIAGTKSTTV
UniProt Q96FZ2: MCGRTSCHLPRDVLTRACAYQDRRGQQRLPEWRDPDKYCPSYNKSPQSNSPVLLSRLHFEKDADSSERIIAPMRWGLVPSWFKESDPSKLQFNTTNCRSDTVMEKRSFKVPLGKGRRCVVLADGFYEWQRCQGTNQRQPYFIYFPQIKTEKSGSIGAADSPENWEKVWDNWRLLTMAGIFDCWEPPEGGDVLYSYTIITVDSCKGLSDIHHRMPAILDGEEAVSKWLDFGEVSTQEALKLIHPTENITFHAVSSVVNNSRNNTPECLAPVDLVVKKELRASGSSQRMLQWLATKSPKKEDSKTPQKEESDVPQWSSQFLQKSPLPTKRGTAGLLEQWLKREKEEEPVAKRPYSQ
UniProt P62256: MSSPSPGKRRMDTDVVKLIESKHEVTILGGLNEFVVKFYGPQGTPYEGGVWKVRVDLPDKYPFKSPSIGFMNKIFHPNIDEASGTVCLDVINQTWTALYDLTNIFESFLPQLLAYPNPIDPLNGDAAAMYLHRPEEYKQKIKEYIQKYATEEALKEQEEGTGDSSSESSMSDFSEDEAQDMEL
UniProt Q32P44: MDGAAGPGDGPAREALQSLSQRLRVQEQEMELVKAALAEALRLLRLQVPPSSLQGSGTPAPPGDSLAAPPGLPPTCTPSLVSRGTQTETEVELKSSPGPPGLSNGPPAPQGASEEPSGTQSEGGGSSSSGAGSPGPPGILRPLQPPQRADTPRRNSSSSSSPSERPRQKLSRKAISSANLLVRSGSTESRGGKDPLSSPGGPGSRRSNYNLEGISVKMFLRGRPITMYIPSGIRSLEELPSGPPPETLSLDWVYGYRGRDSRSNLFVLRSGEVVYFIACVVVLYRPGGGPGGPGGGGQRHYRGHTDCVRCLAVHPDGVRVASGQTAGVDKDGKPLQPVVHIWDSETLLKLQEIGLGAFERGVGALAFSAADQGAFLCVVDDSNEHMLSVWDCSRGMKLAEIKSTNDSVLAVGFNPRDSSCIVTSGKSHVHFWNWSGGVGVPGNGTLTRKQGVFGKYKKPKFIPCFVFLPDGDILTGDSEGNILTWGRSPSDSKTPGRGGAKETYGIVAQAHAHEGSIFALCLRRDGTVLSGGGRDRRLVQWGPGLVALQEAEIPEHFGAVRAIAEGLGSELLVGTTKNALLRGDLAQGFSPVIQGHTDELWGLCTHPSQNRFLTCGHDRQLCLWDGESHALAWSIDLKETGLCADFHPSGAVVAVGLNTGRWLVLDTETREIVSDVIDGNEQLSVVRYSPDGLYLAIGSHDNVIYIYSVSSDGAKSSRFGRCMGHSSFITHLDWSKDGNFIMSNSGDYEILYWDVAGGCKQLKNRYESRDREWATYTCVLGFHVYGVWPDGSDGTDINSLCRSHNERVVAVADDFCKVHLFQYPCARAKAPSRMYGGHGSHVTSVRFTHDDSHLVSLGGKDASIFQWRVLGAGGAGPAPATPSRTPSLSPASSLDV
UniProt P68104, whole entry: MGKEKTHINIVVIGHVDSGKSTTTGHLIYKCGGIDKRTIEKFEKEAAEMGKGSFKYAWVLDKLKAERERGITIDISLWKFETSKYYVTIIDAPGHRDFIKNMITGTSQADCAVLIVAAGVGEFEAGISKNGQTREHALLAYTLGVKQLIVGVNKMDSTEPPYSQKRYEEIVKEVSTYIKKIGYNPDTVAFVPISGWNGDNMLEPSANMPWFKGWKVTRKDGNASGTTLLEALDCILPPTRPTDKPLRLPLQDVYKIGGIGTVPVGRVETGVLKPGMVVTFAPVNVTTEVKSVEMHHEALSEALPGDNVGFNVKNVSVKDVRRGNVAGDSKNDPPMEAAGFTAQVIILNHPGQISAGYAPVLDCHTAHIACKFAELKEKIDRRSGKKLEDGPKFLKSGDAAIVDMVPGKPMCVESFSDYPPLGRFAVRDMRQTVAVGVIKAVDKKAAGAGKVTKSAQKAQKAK
UniProt Q7Z2W4: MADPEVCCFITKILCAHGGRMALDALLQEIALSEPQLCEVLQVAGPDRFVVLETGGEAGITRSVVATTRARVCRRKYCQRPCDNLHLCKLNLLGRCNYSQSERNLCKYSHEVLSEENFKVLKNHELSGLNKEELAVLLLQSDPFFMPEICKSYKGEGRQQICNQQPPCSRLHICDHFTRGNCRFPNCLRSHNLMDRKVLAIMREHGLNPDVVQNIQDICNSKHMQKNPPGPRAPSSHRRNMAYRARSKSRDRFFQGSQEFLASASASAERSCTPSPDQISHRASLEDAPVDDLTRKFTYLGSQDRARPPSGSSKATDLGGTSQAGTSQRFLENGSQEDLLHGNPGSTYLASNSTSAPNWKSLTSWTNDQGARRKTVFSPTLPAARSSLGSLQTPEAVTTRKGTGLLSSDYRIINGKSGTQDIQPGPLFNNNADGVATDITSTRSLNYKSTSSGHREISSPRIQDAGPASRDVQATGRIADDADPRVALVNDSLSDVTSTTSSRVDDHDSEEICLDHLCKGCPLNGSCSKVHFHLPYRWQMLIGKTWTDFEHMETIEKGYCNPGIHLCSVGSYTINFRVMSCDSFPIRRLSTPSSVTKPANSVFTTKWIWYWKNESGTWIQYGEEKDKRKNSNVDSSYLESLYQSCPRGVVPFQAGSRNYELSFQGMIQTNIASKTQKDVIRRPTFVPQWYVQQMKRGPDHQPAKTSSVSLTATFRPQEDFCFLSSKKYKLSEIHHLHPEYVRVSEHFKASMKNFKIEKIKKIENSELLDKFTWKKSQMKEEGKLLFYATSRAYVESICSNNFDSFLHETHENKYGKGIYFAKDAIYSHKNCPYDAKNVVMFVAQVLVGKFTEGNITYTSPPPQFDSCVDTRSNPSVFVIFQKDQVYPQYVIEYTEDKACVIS
UniProt Q96G01: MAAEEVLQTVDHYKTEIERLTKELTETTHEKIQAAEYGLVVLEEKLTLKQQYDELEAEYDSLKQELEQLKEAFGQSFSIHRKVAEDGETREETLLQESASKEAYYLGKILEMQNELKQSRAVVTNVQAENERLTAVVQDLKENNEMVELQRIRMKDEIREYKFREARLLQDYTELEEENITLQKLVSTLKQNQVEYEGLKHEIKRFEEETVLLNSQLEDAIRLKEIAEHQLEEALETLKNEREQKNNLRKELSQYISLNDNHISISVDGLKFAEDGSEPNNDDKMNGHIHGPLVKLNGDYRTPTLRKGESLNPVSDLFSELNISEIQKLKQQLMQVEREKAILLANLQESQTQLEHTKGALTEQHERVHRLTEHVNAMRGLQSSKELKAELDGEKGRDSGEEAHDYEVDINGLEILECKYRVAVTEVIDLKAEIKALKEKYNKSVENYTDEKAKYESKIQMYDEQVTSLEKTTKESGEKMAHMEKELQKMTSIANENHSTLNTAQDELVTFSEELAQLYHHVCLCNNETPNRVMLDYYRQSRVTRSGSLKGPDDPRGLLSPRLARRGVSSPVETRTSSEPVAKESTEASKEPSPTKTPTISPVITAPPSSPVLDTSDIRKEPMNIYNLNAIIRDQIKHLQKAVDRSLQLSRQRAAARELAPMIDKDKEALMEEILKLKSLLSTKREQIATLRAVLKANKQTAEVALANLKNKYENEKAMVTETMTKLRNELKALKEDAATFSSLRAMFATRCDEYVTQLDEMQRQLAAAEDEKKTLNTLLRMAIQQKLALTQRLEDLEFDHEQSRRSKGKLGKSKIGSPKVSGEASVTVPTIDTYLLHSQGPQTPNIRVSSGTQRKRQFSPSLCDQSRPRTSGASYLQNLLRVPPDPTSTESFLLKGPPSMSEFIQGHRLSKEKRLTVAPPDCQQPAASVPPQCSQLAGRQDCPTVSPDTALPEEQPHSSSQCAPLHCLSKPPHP
UniProt O43572: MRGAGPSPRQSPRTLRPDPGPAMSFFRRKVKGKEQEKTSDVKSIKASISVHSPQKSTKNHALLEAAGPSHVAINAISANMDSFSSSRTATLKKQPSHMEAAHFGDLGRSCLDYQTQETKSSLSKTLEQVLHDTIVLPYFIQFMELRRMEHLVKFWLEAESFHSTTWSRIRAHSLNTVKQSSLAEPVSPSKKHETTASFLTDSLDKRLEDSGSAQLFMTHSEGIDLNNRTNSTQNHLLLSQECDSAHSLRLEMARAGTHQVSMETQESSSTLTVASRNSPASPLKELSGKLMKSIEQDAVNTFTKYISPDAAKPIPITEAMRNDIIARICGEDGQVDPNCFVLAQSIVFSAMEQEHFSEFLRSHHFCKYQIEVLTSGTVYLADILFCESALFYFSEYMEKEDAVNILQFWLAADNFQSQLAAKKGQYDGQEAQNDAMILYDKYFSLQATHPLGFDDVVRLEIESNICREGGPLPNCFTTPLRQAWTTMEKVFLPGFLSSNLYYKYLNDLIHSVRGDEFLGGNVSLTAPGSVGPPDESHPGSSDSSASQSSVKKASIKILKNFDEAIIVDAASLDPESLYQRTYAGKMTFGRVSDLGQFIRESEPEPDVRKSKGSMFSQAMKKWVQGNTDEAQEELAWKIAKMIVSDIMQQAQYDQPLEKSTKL
UniProt Q969M7: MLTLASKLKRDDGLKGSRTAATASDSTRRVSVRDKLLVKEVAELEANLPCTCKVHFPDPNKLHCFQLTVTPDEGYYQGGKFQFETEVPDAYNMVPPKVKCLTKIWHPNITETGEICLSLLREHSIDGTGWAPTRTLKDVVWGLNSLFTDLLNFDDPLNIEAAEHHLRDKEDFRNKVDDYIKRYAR
UniProt Q7L5Y9: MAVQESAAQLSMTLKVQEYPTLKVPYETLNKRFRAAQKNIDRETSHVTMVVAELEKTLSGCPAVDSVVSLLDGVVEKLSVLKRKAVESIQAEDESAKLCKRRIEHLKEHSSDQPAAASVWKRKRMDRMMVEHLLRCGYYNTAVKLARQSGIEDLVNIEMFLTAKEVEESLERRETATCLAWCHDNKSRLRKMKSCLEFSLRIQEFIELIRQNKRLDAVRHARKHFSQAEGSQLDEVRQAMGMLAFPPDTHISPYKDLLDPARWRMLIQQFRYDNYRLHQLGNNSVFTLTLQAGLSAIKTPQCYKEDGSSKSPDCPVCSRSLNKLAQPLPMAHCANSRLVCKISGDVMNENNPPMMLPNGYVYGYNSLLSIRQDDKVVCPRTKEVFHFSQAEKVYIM
UniProt Q86Y82: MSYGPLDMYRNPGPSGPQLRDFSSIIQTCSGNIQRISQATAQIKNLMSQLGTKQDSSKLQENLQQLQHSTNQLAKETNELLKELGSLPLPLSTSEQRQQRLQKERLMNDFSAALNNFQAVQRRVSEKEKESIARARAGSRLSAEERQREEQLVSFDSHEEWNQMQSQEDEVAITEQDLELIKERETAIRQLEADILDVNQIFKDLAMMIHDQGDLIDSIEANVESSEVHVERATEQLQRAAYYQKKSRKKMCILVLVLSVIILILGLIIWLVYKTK
UniProt P07910: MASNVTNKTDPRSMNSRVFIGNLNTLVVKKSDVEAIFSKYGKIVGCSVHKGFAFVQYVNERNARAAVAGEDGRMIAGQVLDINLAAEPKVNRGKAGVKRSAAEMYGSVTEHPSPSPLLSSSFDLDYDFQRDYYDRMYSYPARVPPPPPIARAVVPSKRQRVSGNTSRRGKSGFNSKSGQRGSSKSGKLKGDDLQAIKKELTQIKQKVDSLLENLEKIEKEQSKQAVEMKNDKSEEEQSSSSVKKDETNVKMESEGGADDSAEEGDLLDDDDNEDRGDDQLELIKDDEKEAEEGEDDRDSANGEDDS

Compound: Nc1nc2c(ncn2[C@@H]2O[C@H](COP(=O)(O)OP(=O)(O)OP(=O)(O)O)[C@@H](O)[C@H]2O)c(=O)[nH]1 [guanosine triphosphate]
Experiment: NP40-soluble protein abundance relative to vehicle (solubility fold change) (ratio); higher = more soluble protein in presence of GTP
Method in brief: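 In three independent experiments, Jurkat crude lysate made by Dounce homogenisation was treated for 10 min at room temperature and then 3 min at 37 °C with eight concentrations ranging from 0.1 to 10 mM. It was then solubilised with 0.8% NP40 plus benzonase for 60 min at 4 °C and ultracentrifuged. The supernatant was TMT-labelled for LC-MS/MS, and each value is the fold change against the detergent-processed vehicle for the same replicate, using vsn-normalised intensities.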

Target: A8MX75 and related entries (UniProt P18074)
- NP40-soluble protein abundance (concentration: 0.1mM): 1.11 ± 0.067
- NP40-soluble protein abundance (concentration: 0.5mM): 1.14 ± 0.094
- NP40-soluble protein abundance (concentration: 1mM): 1.06 ± 0.058
- NP40-soluble protein abundance (concentration: 2mM): 1.11 ± 0.098
- NP40-soluble protein abundance (concentration: 4mM): 1.09 ± 0.043
- NP40-soluble protein abundance (concentration: 6mM): 1.08 ± 0.088
- NP40-soluble protein abundance (concentration: 8mM): 1.04 ± 0.049
- NP40-soluble protein abundance (concentration: 10mM): 0.966 ± 0.1

Target: C9J8R4 and related entries (UniProt Q96GG9)
- NP40-soluble protein abundance (concentration: 0.1mM): 0.935 ± 0.042
- NP40-soluble protein abundance (concentration: 0.5mM): 0.919 ± 0.034
- NP40-soluble protein abundance (concentration: 1mM): 0.903 ± 0.049
- NP40-soluble protein abundance (concentration: 2mM): 0.889 ± 0.072
- NP40-soluble protein abundance (concentration: 4mM): 0.867 ± 0.048
- NP40-soluble protein abundance (concentration: 6mM): 0.87 ± 0.044
- NP40-soluble protein abundance (concentration: 8mM): 0.842 ± 0.077
- NP40-soluble protein abundance (concentration: 10mM): 0.84 ± 0.084

Target: E7EMP6 and related entries (UniProt Q96FZ2)
- NP40-soluble protein abundance (concentration: 0.1mM): 0.9812 ± 0.0021
- NP40-soluble protein abundance (concentration: 0.5mM): 0.991 ± 0.032
- NP40-soluble protein abundance (concentration: 1mM): 0.959 ± 0.02
- NP40-soluble protein abundance (concentration: 2mM): 0.979 ± 0.065
- NP40-soluble protein abundance (concentration: 4mM): 0.959 ± 0.074
- NP40-soluble protein abundance (concentration: 6mM): 0.945 ± 0.045
- NP40-soluble protein abundance (concentration: 8mM): 0.988 ± 0.038
- NP40-soluble protein abundance (concentration: 10mM): 0.962 ± 0.031

Target: C9J8Q9 and related entries (UniProt P62256)
- NP40-soluble protein abundance (concentration: 0.1mM): 0.909 ± 0.052
- NP40-soluble protein abundance (concentration: 0.5mM): 0.911 ± 0.096
- NP40-soluble protein abundance (concentration: 1mM): 0.937 ± 0.055
- NP40-soluble protein abundance (concentration: 2mM): 0.884 ± 0.061
- NP40-soluble protein abundance (concentration: 4mM): 0.862 ± 0.11
- NP40-soluble protein abundance (concentration: 6mM): 0.885 ± 0.087
- NP40-soluble protein abundance (concentration: 8mM): 0.901 ± 0.083
- NP40-soluble protein abundance (concentration: 10mM): 0.854 ± 0.069

Target: B7WPE2 and related entries (UniProt Q32P44)
- NP40-soluble protein abundance (concentration: 0.1mM): 1.09 ± 0.03
- NP40-soluble protein abundance (concentration: 0.5mM): 1.12 ± 0.038
- NP40-soluble protein abundance (concentration: 1mM): 1.11 ± 0.068
- NP40-soluble protein abundance (concentration: 2mM): 1.14 ± 0.095
- NP40-soluble protein abundance (concentration: 4mM): 1.14 ± 0.1
- NP40-soluble protein abundance (concentration: 6mM): 1.15 ± 0.059
- NP40-soluble protein abundance (concentration: 8mM): 1.13 ± 0.086
- NP40-soluble protein abundance (concentration: 10mM): 1.08 ± 0.046

Target: A6PW80 and related entries (UniProt P68104)
- NP40-soluble protein abundance (concentration: 0.1mM): 0.979 ± 0.033
- NP40-soluble protein abundance (concentration: 0.5mM): 0.987 ± 0.031
- NP40-soluble protein abundance (concentration: 1mM): 0.961 ± 0.032
- NP40-soluble protein abundance (concentration: 2mM): 0.909 ± 0.015
- NP40-soluble protein abundance (concentration: 4mM): 0.8877 ± 0.0079
- NP40-soluble protein abundance (concentration: 6mM): 0.921 ± 0.015
- NP40-soluble protein abundance (concentration: 8mM): 0.883 ± 0.026
- NP40-soluble protein abundance (concentration: 10mM): 0.868 ± 0.023

Target: C9J6P4 and related entries (UniProt Q7Z2W4)
- NP40-soluble protein abundance (concentration: 0.1mM): 1 ± 0.014
- NP40-soluble protein abundance (concentration: 0.5mM): 1.06 ± 0.022
- NP40-soluble protein abundance (concentration: 1mM): 1.03 ± 0.051
- NP40-soluble protein abundance (concentration: 2mM): 1.04 ± 0.021
- NP40-soluble protein abundance (concentration: 4mM): 1.05 ± 0.015
- NP40-soluble protein abundance (concentration: 6mM): 1.05 ± 0.012
- NP40-soluble protein abundance (concentration: 8mM): 1.07 ± 0.043
- NP40-soluble protein abundance (concentration: 10mM): 1.07 ± 0.032

Target: A8MVZ6 and related entries (UniProt Q96G01)
- NP40-soluble protein abundance (concentration: 0.1mM): 0.975 ± 0.048
- NP40-soluble protein abundance (concentration: 0.5mM): 0.945 ± 0.057
- NP40-soluble protein abundance (concentration: 1mM): 0.988 ± 0.048
- NP40-soluble protein abundance (concentration: 2mM): 0.98 ± 0.1
- NP40-soluble protein abundance (concentration: 4mM): 1 ± 0.074
- NP40-soluble protein abundance (concentration: 6mM): 0.949 ± 0.04
- NP40-soluble protein abundance (concentration: 8mM): 0.987 ± 0.028
- NP40-soluble protein abundance (concentration: 10mM): 0.978 ± 0.045

Target: E7EMD6 and related entries (UniProt O43572)
- NP40-soluble protein abundance (concentration: 0.1mM): 0.999 ± 0.048
- NP40-soluble protein abundance (concentration: 0.5mM): 0.99 ± 0.069
- NP40-soluble protein abundance (concentration: 1mM): 0.965 ± 0.037
- NP40-soluble protein abundance (concentration: 2mM): 0.953 ± 0.089
- NP40-soluble protein abundance (concentration: 4mM): 0.996 ± 0.038
- NP40-soluble protein abundance (concentration: 6mM): 0.931 ± 0.071
- NP40-soluble protein abundance (concentration: 8mM): 0.926 ± 0.048
- NP40-soluble protein abundance (concentration: 10mM): 0.903 ± 0.02

Target: C9J9P8 and related entries (UniProt Q969M7)
- NP40-soluble protein abundance (concentration: 0.1mM): 0.98 ± 0.064
- NP40-soluble protein abundance (concentration: 0.5mM): 0.912 ± 0.049
- NP40-soluble protein abundance (concentration: 1mM): 1.04 ± 0.11
- NP40-soluble protein abundance (concentration: 2mM): 0.983 ± 0.093
- NP40-soluble protein abundance (concentration: 4mM): 0.97 ± 0.084
- NP40-soluble protein abundance (concentration: 6mM): 0.997 ± 0.05
- NP40-soluble protein abundance (concentration: 8mM): 0.937 ± 0.16
- NP40-soluble protein abundance (concentration: 10mM): 1.03 ± 0.11

Target: B4DQT1 and related entries (UniProt Q7L5Y9)
- NP40-soluble protein abundance (concentration: 0.1mM): 1.1 ± 0.099
- NP40-soluble protein abundance (concentration: 0.5mM): 1.15 ± 0.14
- NP40-soluble protein abundance (concentration: 1mM): 1.15 ± 0.19
- NP40-soluble protein abundance (concentration: 2mM): 1.22 ± 0.2
- NP40-soluble protein abundance (concentration: 4mM): 1.25 ± 0.19
- NP40-soluble protein abundance (concentration: 6mM): 1.22 ± 0.22
- NP40-soluble protein abundance (concentration: 8mM): 1.25 ± 0.21
- NP40-soluble protein abundance (concentration: 10mM): 1.19 ± 0.21

Target: B1AJQ6 and related entries (UniProt Q86Y82)
- NP40-soluble protein abundance (concentration: 0.1mM): 0.895 ± 0.028
- NP40-soluble protein abundance (concentration: 0.5mM): 0.895 ± 0.064
- NP40-soluble protein abundance (concentration: 1mM): 0.958 ± 0.021
- NP40-soluble protein abundance (concentration: 2mM): 0.931 ± 0.069
- NP40-soluble protein abundance (concentration: 4mM): 0.955 ± 0.068
- NP40-soluble protein abundance (concentration: 6mM): 0.995 ± 0.048
- NP40-soluble protein abundance (concentration: 8mM): 0.989 ± 0.15
- NP40-soluble protein abundance (concentration: 10mM): 1.06 ± 0.054

Target: B2R5W2 and related entries (UniProt P07910)
- NP40-soluble protein abundance (concentration: 0.1mM): 0.9495 ± 0.002
- NP40-soluble protein abundance (concentration: 0.5mM): 1.03 ± 0.042
- NP40-soluble protein abundance (concentration: 1mM): 1.12 ± 0.11
- NP40-soluble protein abundance (concentration: 2mM): 1.09 ± 0.13
- NP40-soluble protein abundance (concentration: 4mM): 1.04 ± 0.19
- NP40-soluble protein abundance (concentration: 6mM): 1.04 ± 0.17
- NP40-soluble protein abundance (concentration: 8mM): 1.02 ± 0.23
- NP40-soluble protein abundance (concentration: 10mM): 0.98 ± 0.22
